# The other results are listed elsewhere or left out. Many values rest on one well or one pass, so single values are uncertain.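 Cells were imaged in 1,536-well plates, and nuclei stained with an antibody against cleaved PARP were counted against all DNA-stained nuclei to give the apoptosis fraction. Screening doses were chosen to leave most cells alive, and resting and induced cleaved-PARP levels differ strongly between cell lines.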
# Tests used:
# Experiment in all cases: cleaved PARP positive nuclei fraction relative to DMSO control; melanoma cells; higher = more apoptosis
# Details in all cases: library dose: low library concentration; 72 h
# 501Mel = tested on: 501Mel
# A101D = tested on: A101D
# A2058 = tested on: A2058
# C32 = tested on: C32
# CBRC008 = tested on: CBRC008 (line from a melanoma biopsy)
# CBRC014 = tested on: CBRC014 (line from a melanoma biopsy)
# CBRC016 = tested on: CBRC016 (line from a melanoma biopsy)
# CBRC017 = tested on: CBRC017 (line from a melanoma biopsy)
SMILES,cleaved PARP positive nuclei fraction (501Mel) [%],cleaved PARP positive nuclei fraction (A101D) [%],cleaved PARP positive nuclei fraction (A2058) [%],cleaved PARP positive nuclei fraction (C32) [%],cleaved PARP positive nuclei fraction (CBRC008) [%],cleaved PARP positive nuclei fraction (CBRC014) [%],cleaved PARP positive nuclei fraction (CBRC016) [%],cleaved PARP positive nuclei fraction (CBRC017) [%]
"C[C@@H](N)c1ccc(C(=O)Nc2ccnc3[nH]ccc23)cc1 + CC(C)CCN1c2nc(Nc3cc(F)c(O)c(F)c3)ncc2N(C)C(=O)C1C [BID1870] (first compound 0.4 µM, partner dose 0.2 µM)",72.3,51.1,273,181,174,132,118,120
"CS(=O)(=O)c1ccc(C(=O)Nc2ccc(Cl)c(-c3ccccn3)c2)c(Cl)c1 [vismodegib] + N#Cc1c(O)c2c(-c3ccc(-c4ccccc4O)cc3)csc2[nH]c1=O [A769662] (first compound 1 µM, partner dose 2 µM)",72.3,24.2,110,38.9,165,81.3,87.3,64.6
"CC1(C)CCC(c2ccc(Cl)cc2)=C(CN2CCN(c3ccc(C(=O)NS(=O)(=O)c4ccc(N[C@H](CCN5CCOCC5)CSc5ccccc5)c(S(=O)(=O)C(F)(F)F)c4)cc3)CC2)C1 + CC(C)CCN1c2nc(Nc3cc(F)c(O)c(F)c3)ncc2N(C)C(=O)C1C [BID1870] (first compound 0.4 µM, partner dose 0.2 µM)",392,80.8,127,958,151,557,514,410
"Cn1cnc2c(F)c(Nc3ccc(Br)cc3Cl)c(C(=O)NOCCO)cc21 [selumetinib] + COC(=O)c1sccc1S(=O)(=O)Nc1ccc(Nc2ccccc2)cc1OC [GSK0660] (first compound 0.015 µM, partner dose 1 µM)",99.1,56.8,146,147,157,90.2,52,114
"COc1ccc(C2=N[C@@H](c3ccc(Cl)cc3)[C@@H](c3ccc(Cl)cc3)N2C(=O)N2CCNC(=O)C2)c(OC(C)C)c1 [Nutlin-3] + O=C(O)C(=O)Nc1sc2c(c1C(=O)O)CCNC2 [TCS401] (first compound 0.1 µM, partner dose 1.66667 µM)",36.6,31.4,81,233,123,79.6,70.9,91.5
"CCN(CC)CCNC(=O)c1c(C)[nH]c(/C=C2\C(=O)Nc3ccc(F)cc32)c1C [sunitinib] + COc1ccc(-c2ccc3c(N4CCOCC4)nc(N4C[C@@H](C)O[C@@H](C)C4)nc3n2)cc1CO [KU0063794] (first compound 0.4 µM, partner dose 0.02 µM)",148,51.7,149,80.6,76.2,118,16.5,105
"COc1ccc(C2=N[C@@H](c3ccc(Cl)cc3)[C@@H](c3ccc(Cl)cc3)N2C(=O)N2CCNC(=O)C2)c(OC(C)C)c1 [Nutlin-3] + Oc1nc(-c2ccc(C(F)(F)F)cc2)nc2c1CSCC2 [XAV939] (first compound 0.1 µM, partner dose 2 µM)",86,28.4,408,106,184,109,54.6,133
"CC1(C)CCC(c2ccc(Cl)cc2)=C(CN2CCN(c3ccc(C(=O)NS(=O)(=O)c4ccc(N[C@H](CCN5CCOCC5)CSc5ccccc5)c(S(=O)(=O)C(F)(F)F)c4)cc3)CC2)C1 + COc1ccc(COc2ccc(Cc3cnc(N)nc3N)cc2OC)cc1 [GW2580] (first compound 0.4 µM, partner dose 1 µM)",203,10.2,225,423,814,328,735,442
"C[C@@H](N)c1ccc(C(=O)Nc2ccnc3[nH]ccc23)cc1 + N#Cc1c(O)c2c(-c3ccc(-c4ccccc4O)cc3)csc2[nH]c1=O [A769662] (first compound 0.4 µM, partner dose 2 µM)",53.4,22.6,62,69,49,216,193,98
"CC1(C)CCC(c2ccc(Cl)cc2)=C(CN2CCN(c3ccc(C(=O)NS(=O)(=O)c4ccc(N[C@H](CCN5CCOCC5)CSc5ccccc5)c(S(=O)(=O)C(F)(F)F)c4)cc3)CC2)C1 + O=S(=O)(c1ccccc1)N(CC(F)(F)F)c1ccc(C(O)(C(F)(F)F)C(F)(F)F)cc1 [T0901317] (first compound 0.4 µM, partner dose 1.4 µM)",191,83.6,61.3,292,157,579,529,507
"C[C@@H](N)c1ccc(C(=O)Nc2ccnc3[nH]ccc23)cc1 + O=c1cc(-c2cccc3c2Sc2ccccc2S3)oc(N2CCOCC2)c1 [KU55933] (first compound 0.4 µM, partner dose 1 µM)",123,27.7,180,209,68.2,108,63.7,139
"C[C@]1(O)C[C@@H](c2nc(-c3ccc4ccc(-c5ccccc5)nc4c3)c3c(N)nccn32)C1 + CCN(CC)CCCCNc1ncc2cc(-c3cc(OC)cc(OC)c3)c(NC(=O)NC(C)(C)C)nc2n1 [PD173074] (first compound 0.4 µM, partner dose 0.1 µM)",76.3,14.5,155,115,192,91.8,95.2,90.7
"CN(c1ncccc1CNc1nc(Nc2ccc3c(c2)CC(=O)N3)ncc1C(F)(F)F)S(C)(=O)=O + COC(=O)c1sccc1S(=O)(=O)Nc1ccc(Nc2ccccc2)cc1OC [GSK0660] (first compound 0.08 µM, partner dose 1 µM)",35.4,26.2,101,322,61.9,93.8,106,99.7
"CN(c1ncccc1CNc1nc(Nc2ccc3c(c2)CC(=O)N3)ncc1C(F)(F)F)S(C)(=O)=O + O=C(Nc1ccccc1)c1cc([N+](=O)[O-])ccc1Cl [GW9662] (first compound 0.08 µM, partner dose 2 µM)",61.7,42.4,100,160,24.6,83.7,73.1,199
"Cn1sc(=O)n(Cc2ccccc2)c1=O + Cn1cc(/C=C2\C(=O)Nc3cccnc32)c2ccccc21 [GW441756] (first compound 0.4 µM, partner dose 0.4 µM)",98.6,23.2,31.3,86.9,126,188,198,87.5
"CS(=O)(=O)c1ccc(C(=O)Nc2ccc(Cl)c(-c3ccccn3)c2)c(Cl)c1 [vismodegib] + COc1ccc(COc2ccc(Cc3cnc(N)nc3N)cc2OC)cc1 [GW2580] (first compound 1 µM, partner dose 1 µM)",55.7,26.1,139,72.3,49.4,102,48,95.2
"CCCCCCCCc1ccc(CCC(N)(CO)CO)cc1 [fingolimod] + c1cc(-c2cnn3cc(-c4ccc(OCCN5CCCCC5)cc4)cnc23)ccn1 [Dorsomorphin] (first compound 2 µM, partner dose 0.4 µM)",45.8,20.2,92,155,25.1,108,18.3,114
"NC(=O)c1ccc(N(C(N)=O)c2c(F)cccc2F)nc1-c1ccc(F)cc1F + N#Cc1c(O)c2c(-c3ccc(-c4ccccc4O)cc3)csc2[nH]c1=O [A769662] (first compound 0.4 µM, partner dose 2 µM)",87.9,12.2,65.8,151,64.8,92.7,92.6,78.7
"Cn1sc(=O)n(Cc2ccccc2)c1=O + Oc1nc(-c2ccc(C(F)(F)F)cc2)nc2c1CSCC2 [XAV939] (first compound 0.4 µM, partner dose 2 µM)",113,14.5,90,94,65.3,91.9,69.4,115
"Cn1cnc2c(F)c(Nc3ccc(Br)cc3Cl)c(C(=O)NOCCO)cc21 [selumetinib] + O=S(=O)(c1ccccc1)N(CC(F)(F)F)c1ccc(C(O)(C(F)(F)F)C(F)(F)F)cc1 [T0901317] (first compound 0.015 µM, partner dose 1.4 µM)",126,49,78.3,41.5,93.3,96.3,29,134
"Cn1sc(=O)n(Cc2ccccc2)c1=O + CCc1ccc(CCOc2ccc(CC3SC(=O)NC3=O)cc2)nc1 [pioglitazone] (first compound 0.4 µM, partner dose 2 µM)",65.4,25.1,52.5,97.9,57.2,89.2,108,82.4
"Cn1sc(=O)n(Cc2ccccc2)c1=O + O=S(=O)(c1ccccc1)N(CC(F)(F)F)c1ccc(C(O)(C(F)(F)F)C(F)(F)F)cc1 [T0901317] (first compound 0.4 µM, partner dose 1.4 µM)",67.3,5.65,150,28.1,152,97.2,15.3,82.8
"Cn1cnc2c(F)c(Nc3ccc(Br)cc3Cl)c(C(=O)NOCCO)cc21 [selumetinib] + Oc1nc(-c2ccc(C(F)(F)F)cc2)nc2c1CSCC2 [XAV939] (first compound 0.015 µM, partner dose 2 µM)",116,25.3,116,43,108,96,130,78.8
"COc1ccc(C2=N[C@@H](c3ccc(Cl)cc3)[C@@H](c3ccc(Cl)cc3)N2C(=O)N2CCNC(=O)C2)c(OC(C)C)c1 [Nutlin-3] + Oc1cc(-c2nc(-c3ccccc3)[nH]c2-c2ccncc2)ccc1Cl [L779450] (first compound 0.1 µM, partner dose 0.2 µM)",104,14.7,106,44.1,45,101,102,155

# Individual results from the entries so far:
# Value of CCN(CC)CCNC(=O)c1c(C)[nH]c(/C=C2\C(=O)Nc3ccc(F)cc32)c1C [sunitinib] + COc1ccc(-c2ccc3c(N4CCOCC4)nc(N4C[C@@H](C)O[C@@H](C)C4)nc3n2)cc1CO [KU0063794] (first compound 0.4 µM, partner dose 0.02 µM) under cleaved PARP positive nuclei fraction (A101D) [%]: 51.7
# Value of Cn1sc(=O)n(Cc2ccccc2)c1=O + Oc1nc(-c2ccc(C(F)(F)F)cc2)nc2c1CSCC2 [XAV939] (first compound 0.4 µM, partner dose 2 µM) under cleaved PARP positive nuclei fraction (501Mel) [%]: 113
